# Results taken from PubChem BioAssay AID587 (National Center for Advancing Translational Sciences (NCATS), 2007).
# Values joined by “and” are separate entries in the source; they are usually repeats but may differ in a detail not shown here. Equal entries are not always repeated. Hit rate of the full screen: of about 59,000 compounds, about 35 (0.06%) were called active. The inconclusive results got no clear call from the source; some entries with a clear call stand among them for comparison. Rule as the data show it: active = max dye-equivalent concentration above about 10 nM; inconclusive = between about 1.1 nM and that limit; inactive = weaker than that.
# Experiment: qHTS Assay for Spectroscopic Profiling in Texas Red Spectral Region
# Settings: Compound fluorescence, Texas Red channel, 547/618 nm; stronger effect = higher value
# In short: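 Spectral interference profiling: each compound concentration's relative fluorescence, read with a 547 nm excitation and 618 nm emission filter pair, was normalized to a per-plate Texas Red standard curve.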
row,SMILES,max dye-equivalent concentration
1,CN1CC=C2C(C#N)=C(N)C(C#N)(C#N)C(c3cccc(Cl)c3Cl)C2C1 (stereo unspecified),inconclusive: 1.4e-09 M
2,CCN(CC)C(=O)Cc1cc(C(=O)O)c2ccccc2n1,inconclusive: 2.6e-09 M
3,NCCS(=O)O,inconclusive: 1.5e-09 M
4,Cc1cc(C)n2c(SCC(=O)Nc3ncc(C(F)(F)F)cc3Cl)nnc2n1,inconclusive: 1.4e-09 M
5,Cc1cc(=O)[nH]c(SCCOc2ccc(OC(C)C)cc2)n1,inconclusive: 6.5e-09 M
6,O=C(CSc1ccc2nnc(-c3ccc(F)cc3)n2n1)NCc1ccco1,inconclusive: 1.1e-09 M
7,Cc1cc(C(=O)Nc2cccc3ncccc23)no1,inconclusive: 1.5e-09 M
8,CCC(O)c1cc2c(cc1NC(=O)c1ccc(C)cc1)OCCO2 (stereo unspecified),inconclusive: 2.4e-09 M
9,COCCCNC(=O)C1CCN(S(=O)(=O)c2c(C)noc2/C=C\c2ccc(OC)cc2)CC1,inconclusive: 2.7e-09 M
10,O=C(COc1ncnc2ccccc12)NC1CCS(=O)(=O)C1 (stereo unspecified),inconclusive: 1.7e-09 M
11,Cn1cc(-c2nc3cnc(Oc4cccc(Cl)c4)nc3n(C3CC3)c2=O)c2ccccc21,inactive
12,CC(C)NC[C@H](O)c1ccc(O)c(O)c1,inconclusive: 1.1e-09 M and inconclusive: 1.7e-09 M
13,CCn1c(Cc2ccccc2)nnc1SCC(=O)Nc1ccc(S(N)(=O)=O)cc1,inconclusive: 1.8e-09 M
14,CC(=O)Nc1ccc(S(=O)(=O)N[C@H](C(=O)O)C(C)C)cc1,inconclusive: 1.1e-09 M
15,O=C(NC1CCCCC1)C(c1ccccc1)N(Cc1ccco1)C(=O)Cn1cnc2ccccc21 (stereo unspecified),inconclusive: 2.9e-09 M
16,CCn1c(SCC(=O)N2CCOCC2)nnc1-c1cccs1,inconclusive: 2e-09 M
17,O=C(NCCN1CCOCC1)c1ccc2c(c1)N(Cc1ccccc1)C(=O)CS2,inconclusive: 1.1e-09 M
18,N#CCc1nc(CSc2nc3ccccc3o2)cs1,inconclusive: 1.9e-09 M
19,CCC(=O)c1ccc(OCC(O)CN2CCN(c3cccc(C(F)(F)F)c3)CC2)cc1 (stereo unspecified),inconclusive: 1.1e-09 M

row,SMILES,max dye-equivalent concentration
1,C[C@@H]1C[C@H](OC(=O)c2ccccc2O)CC(C)(C)C1,inactive
2,Cc1ccc(S(=O)(=O)N[C@H](CN)C(=O)O)cc1,inactive
3,O=C(O)C1CCCCC1C(=O)Nc1ccc(Cl)cc1 (stereo unspecified),inactive
4,O=C(CCCc1nc(-c2ccc(Cl)cc2)no1)Nc1cccnc1,inconclusive: 2e-09 M
5,N#C/C(=C\Nc1ccc2c(c1)OCCO2)c1nc2ccccc2[nH]1,inconclusive: 1.4e-09 M
6,COc1ccc(C2CC(=O)c3cnc(N)nc3C2)c(OC)c1 (stereo unspecified),inconclusive: 1.2e-09 M
7,CC(=O)Nc1cccc(N2C(=O)CC(N3CCC(C(=O)N4CCCCC4)CC3)C2=O)c1 (stereo unspecified),inconclusive: 1.1e-09 M
8,COc1cccc(CN2C(=O)CN(C3CCCCC3)C(=O)C2c2ccc(F)cc2)c1 (stereo unspecified),inconclusive: 1.6e-09 M
9,Cc1cc(C)cc(N2C(=O)CSC2c2cccs2)c1 (stereo unspecified),inconclusive: 1.5e-09 M
10,COc1ccc(-n2c(=O)c(CCc3ccccc3)nc3cnc(N4CCN(C)CC4)nc32)cc1,inactive
11,N[C@@H](Cc1cccc([N+](=O)[O-])c1)C(=O)O,inactive
12,N#Cc1cc2c(nc1SCc1cccnc1)CCC2,inconclusive: 1.1e-09 M
13,Cn1c(CCC(=O)Nc2ccc(N3CCOCC3)cc2)nc(=O)c2ccccc21,inconclusive: 1.3e-09 M
14,O=C(O)[C@@H](O)[C@@H](O)[C@@H](O)[C@@H](O)c1nc2ccccc2s1,inactive
15,Cc1ccc(Nc2oc(C)nc2C#N)cc1,inconclusive: 1.1e-09 M
16,CNC(=O)c1ccccc1NC(=O)c1c(O)c2c([nH]c1=O)CCCC2,inconclusive: 2.6e-09 M
17,O=C(O)c1cccc(S(=O)(=O)NCC2CCCO2)c1 (stereo unspecified),inconclusive: 1.3e-09 M
18,Cc1nnsc1NC(=O)OCC(C)C,inconclusive: 1.4e-09 M
19,CCc1ccccc1N1CSC2=C(C#N)C(c3cc(OC)c(OC)cc3OC)CC(=O)N2C1 (stereo unspecified),inconclusive: 1.4e-09 M

row,SMILES,max dye-equivalent concentration
1,Cc1cccc(S(=O)(=O)c2c(N)n(Cc3ccco3)c3nc4ccccc4nc23)c1,inactive
2,Cc1ccc2c(c1)[nH]c1c(=O)n(CCN3CCNCC3)cnc12,inconclusive: 1.4e-09 M
3,COC(=O)c1sccc1NC(=O)c1cc(C)on1,inconclusive: 1.3e-09 M
4,CCOC(=O)c1c(C)oc2c1c(C=NC1CCS(=O)(=O)C1)c(O)c1ccccc12 (stereo unspecified),inconclusive: 1.1e-09 M
5,CCN1C=C(Cc2cccs2)C2=C(C1)C(c1cccs1)C(C#N)=C(N)O2 (stereo unspecified),inconclusive: 1.4e-09 M
6,CCN(CC)CCCNc1oc(-c2cccc(Cl)c2)nc1C#N,inconclusive: 1.1e-09 M
7,Cc1cc(NC(=O)CN2CCC(n3nnc4cc(C(F)(F)F)ccc43)CC2)no1,inconclusive: 1.2e-09 M
8,c1csc(-c2csc3ncnc(NCCCN4CCOCC4)c23)c1,inconclusive: 1.7e-09 M
9,COc1ccc(Br)cc1CNC(=O)CCc1nc(-c2ccc(C)cc2)no1,inconclusive: 1.4e-09 M
10,O=C(O)CC[C@@H](NC(=O)c1ccccc1C(=O)O)C(=O)O,inactive
11,C[C@H]1CN(S(=O)(=O)c2cccc3cnccc23)CCN1,inconclusive: 1.3e-09 M
12,CC1=C(C(=O)O)N2C(=O)[C@@H](NC(=O)[C@@H](N)c3ccccc3)[C@@H]2SC1,inactive
13,O=S(=O)(O)c1ccc2c(N=Nc3c(O)ccc4ccccc34)cccc2c1,inactive
14,O=C(CSc1nnc(-c2cccs2)o1)NCC1CN(Cc2ccccc2)CCO1 (stereo unspecified),inconclusive: 1.7e-09 M
15,Cc1[nH]c2ccccc2c1NC(=O)CN1CCN(c2cccc(C(F)(F)F)c2)CC1,inconclusive: 1.4e-09 M
16,Cc1c(N(C)C(=O)C23CC4CC(CC(C4)C2)C3)c(=O)n(-c2ccccc2)n1C,inconclusive: 1.9e-09 M
17,O=C(c1ccc(C#CC2(O)CCCCC2)cc1)N1CCOCC1,inconclusive: 1.3e-09 M
18,CCOC(=O)SC1=N/C(=C\c2ccc(N(C)C)cc2)C(=O)S1,inactive
